{"source": "PubChem BioAssay AID1053208, Peter MacCallum Cancer Centre | 2014", "assay": "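Synthetic lethal interactions between gene loss and doxorubicin in osteosarcoma cells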 (primary screen)", "cell system": "mouse osteosarcoma cells, early-passage culture from an engineered mouse model of fibroblastic bone tumour", "knock-down reagent": "siRNA pool against mouse genes, 40 nM", "timing": "about 120 h (48 h before drug, then 72 h with drug)", "challenge": "doxorubicin 100 nM for 72 h, roughly 30-40% inhibitory dose", "measured": "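Luminescent ATP signal taken as viability with or without 100 nM doxorubicin for 72 h; mean of two wells set against non-targeting siRNA and turned into robust z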", "reading the numbers": "viability z-score with doxorubicin: higher = more viable cells under doxorubicin; viability z-score without drug: higher = more viable cells with knock-down alone", "rule for the call": "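Called active if knock-down leaves viability unchanged without drug (z within -2 to 2) but lowers it with doxorubicin (z at or under -2)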", "note": "This is one part, drawn at random, of about 17,000 reagents. Over the whole deposit, 788 (4.7%) were called active. 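Calls rest on z-score classes alone; an extra cut-off of viability at most 70% of control was not applied to them.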 Unmarked entries are inactive. Some reagents were tested in more than one well and are listed for each. Not all columns of the deposit are shown."}
The opening 4 records as a preview:
{"target": "Dpcd", "combined z-score class": "no change with or without drug", "viability z-score with doxorubicin": 0.34, "viability z-score without drug": 1.18}
{"target": "Bmp5", "combined z-score class": "low cell count without drug only", "viability z-score with doxorubicin": -1.57, "viability z-score without drug": -2.02}
{"target": "Spats1", "combined z-score class": "no change with or without drug", "viability z-score with doxorubicin": 0.22, "viability z-score without drug": -0.34}
{"target": "Cnih3", "combined z-score class": "no change with or without drug", "viability z-score with doxorubicin": 1.12, "viability z-score without drug": 1.18}

Main list, from the start:
{"target": "Dpcd", "combined z-score class": "no change with or without drug", "viability z-score with doxorubicin": 0.34, "viability z-score without drug": 1.18}
{"target": "Bmp5", "combined z-score class": "low cell count without drug only", "viability z-score with doxorubicin": -1.57, "viability z-score without drug": -2.02}
{"target": "Spats1", "combined z-score class": "no change with or without drug", "viability z-score with doxorubicin": 0.22, "viability z-score without drug": -0.34}
{"target": "Cnih3", "combined z-score class": "no change with or without drug", "viability z-score with doxorubicin": 1.12, "viability z-score without drug": 1.18}
{"target": "Dgki", "combined z-score class": "high cell count with doxorubicin only", "viability z-score with doxorubicin": 2.02, "viability z-score without drug": -0.34}
{"target": "Uroc1", "combined z-score class": "no change with or without drug", "viability z-score with doxorubicin": 0.22, "viability z-score without drug": 0.51}
{"target": "Tbx22", "combined z-score class": "no change with or without drug", "viability z-score with doxorubicin": -0.22, "viability z-score without drug": 0.51}
{"target": "Nfkbie", "combined z-score class": "no change with or without drug", "viability z-score with doxorubicin": 1.35, "viability z-score without drug": 0.34}
{"target": "Mon2", "combined z-score class": "no change with or without drug", "viability z-score with doxorubicin": 0.9, "viability z-score without drug": 0.17}
{"target": "Fzd4", "combined z-score class": "no change with or without drug", "viability z-score with doxorubicin": -1.91, "viability z-score without drug": 0.51}
{"target": "Hook3", "combined z-score class": "no change with or without drug", "viability z-score with doxorubicin": -0.34, "viability z-score without drug": 1.18}
{"target": "2810428J06Rik", "combined z-score class": "no change with or without drug", "viability z-score with doxorubicin": -0.56, "viability z-score without drug": -1.18}
{"target": "Tnfrsf14", "combined z-score class": "no change with or without drug", "viability z-score with doxorubicin": -0.45, "viability z-score without drug": 0.51}
{"target": "Zfp979", "combined z-score class": "no change with or without drug", "viability z-score with doxorubicin": -0.56, "viability z-score without drug": 0.51}
{"target": "Cacna1a", "combined z-score class": "no change with or without drug", "viability z-score with doxorubicin": -1.57, "viability z-score without drug": -0.51}
{"target": "Fcgr4", "combined z-score class": "no change with or without drug", "viability z-score with doxorubicin": -0.45, "viability z-score without drug": 0.51}
{"target": "Lrrk2", "combined z-score class": "high cell count with doxorubicin only", "viability z-score with doxorubicin": 2.36, "viability z-score without drug": 1.18}
{"target": "Lrrk2", "combined z-score class": "no change with or without drug", "viability z-score with doxorubicin": -0.45, "viability z-score without drug": 0.84}
{"target": "Helz2", "combined z-score class": "high cell count with doxorubicin only", "viability z-score with doxorubicin": 2.59, "viability z-score without drug": 1.52}
{"target": "Ubtf", "combined z-score class": "no change with or without drug", "viability z-score with doxorubicin": 0.67, "viability z-score without drug": -0.17}
{"target": "Lysmd1", "combined z-score class": "no change with or without drug", "viability z-score with doxorubicin": -1.12, "viability z-score without drug": -0.51}
{"target": "Or52w1", "combined z-score class": "no change with or without drug", "viability z-score with doxorubicin": -1.91, "viability z-score without drug": -1.52}
{"target": "Adamts10", "combined z-score class": "no change with or without drug", "viability z-score with doxorubicin": 0.45, "viability z-score without drug": 1.52}
{"target": "Zfp536", "combined z-score class": "no change with or without drug", "viability z-score with doxorubicin": 0.22, "viability z-score without drug": -0.17}
{"target": "Ino80e", "combined z-score class": "no change with or without drug", "viability z-score with doxorubicin": -1.57, "viability z-score without drug": 0.51}
{"target": "Tmem171", "combined z-score class": "no change with or without drug", "viability z-score with doxorubicin": -0.9, "viability z-score without drug": 1.18}
{"target": "Skint3", "combined z-score class": "no change with or without drug", "viability z-score with doxorubicin": -0.9, "viability z-score without drug": -0.67}
{"target": "Sox3", "combined z-score class": "no change with or without drug", "viability z-score with doxorubicin": -1.8, "viability z-score without drug": -1.85}
{"target": "Ubxn1", "combined z-score class": "no change with or without drug", "viability z-score with doxorubicin": -0.56, "viability z-score without drug": 1.18}
{"target": "Map1a", "combined z-score class": "no change with or without drug", "viability z-score with doxorubicin": 0.22, "viability z-score without drug": -0.17}
{"target": "Or52e19b", "combined z-score class": "no change with or without drug", "viability z-score with doxorubicin": 0, "viability z-score without drug": -0.84}
{"target": "Spdef", "combined z-score class": "no change with or without drug", "viability z-score with doxorubicin": 0.56, "viability z-score without drug": -0.17}
{"target": "Gpatch11", "combined z-score class": "no change with or without drug", "viability z-score with doxorubicin": 0.45, "viability z-score without drug": -0.34}
{"target": "Zbtb46", "combined z-score class": "no change with or without drug", "viability z-score with doxorubicin": -0.45, "viability z-score without drug": 1.52}
{"target": "Supv3l1", "combined z-score class": "no change with or without drug", "viability z-score with doxorubicin": -0.9, "viability z-score without drug": -0.51}
{"target": "Eif5a", "combined z-score class": "high cell count without drug only", "viability z-score with doxorubicin": 0, "viability z-score without drug": 2.87}
